# Measured values taken from PubChem BioAssay AID2685 (National Center for Advancing Translational Sciences (NCATS), 2010).
# The list shows a part of the results. These are further read-outs of the screen, such as a control signal, another cell line or another target. No call is given for them. Most of these compounds were active or inconclusive in the main read-out, so they are no random draw. The note in brackets gives the kind of curve behind each potency; many fits are weak.
# Assay: qHTS Assay for Lipid Storage Modulators in Drosophila S3 Cells;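 as to cell number change: cells counted by Cell Tracker Red CMTPX staining in the red channel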
# Settings: BODIPY lipid droplet fluorescence, 18-24 h; for cell number change: measured here: cell count max response, cells fed with added oleic acid
# Outline: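 Drosophila S3 cells got compounds at several concentrations plus oleic acid (400 uM solution). Laser-scanning cytometry with 488 nm excitation read lipid droplets at 500-530 nm and cells at 575-640 nm. Percent activity was relative to 20 uM Triacsin C.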
# [1] = measured here: lipid fluorescence (Fed channel) AC50, cells fed with added oleic acid
# [2] = measured here: cell number channel AC50, cells fed with added oleic acid
SMILES,AC50 [1],cell number change [%],AC50 [2]
Cc1cc(C)cc(Nc2cnn(C34CC5CC(CC(CC(=O)O)(C5)C3)C4)c(=O)c2Cl)c1,"0.259 µM [falling, partial curve]",,
CN1CCN(C(c2cccc(Cl)c2)c2ccccc2Cl)CC1 (stereo not given),"9.2 µM [falling, partial curve]",-21.8,
COc1ccc(/C=N/NC(=O)c2cc(Br)ccc2O)cc1Cn1cc(Cl)cn1,"0.13 µM [falling, full curve, poor fit]",-61.6,"20.6 µM [falling, single point]"
CC(=O)Nc1sc(C)c(C)c1C(=O)OCC(=O)NC(C)c1ccccc1 (stereo not given),,2.45,
CC1CCN(S(=O)(=O)c2cccc(C(=O)Nc3ccccn3)c2)CC1,,,"6.51 µM [rising, single point]"
O=C(Nc1ccc2c(c1)OCO2)C1CC(c2cccc(Br)c2)=NO1 (stereo not given),"20.6 µM [rising, single point]",19.3,
CCCS(=O)(=O)N1CCC(C(=O)Oc2ccc(OC)cc2)CC1,"0.731 µM [rising, single point]",10.1,
CCOc1ccc(N2CC(C(=O)Nc3nnc(Cc4ccc(OC)c(OC)c4)s3)CC2=O)cc1 (stereo not given),,2.63,
CCOc1ccc2oc(C(=O)Nc3ccc(N4CCOCC4)cc3)c(C)c2c1,"0.231 µM [falling, full curve, poor fit]",66.1,"29.1 µM [rising, single point]"
COc1ccc(-c2cc3c(=O)n(CC(=O)NC4CCN(Cc5ccccc5)CC4)ncn3n2)cc1,"0.731 µM [falling, full curve]",1.27,
N=c1c(C(=O)NCCc2ccccc2)cc2c(=O)n3ccccc3nc2n1CCCN1CCOCC1,"0.731 µM [falling, full curve, poor fit]",,
O=C(Oc1ccc2c3c(c(=O)oc2c1)CCCC3)c1cccs1,"0.58 µM [falling, single point]",-19.3,"0.517 µM [falling, full curve]"
COC(=O)/C(=C/Nc1ccccc1)[N+](=O)[O-],"2.06 µM [falling, partial curve]",-30.6,"6.51 µM [falling, partial curve, poor fit]"
COC(=O)c1c(C)oc2c1cc(NS(=O)(=O)c1cccs1)c1ccccc12,"7.31 µM [rising, partial curve]",48.2,"1.03 µM [rising, full curve]"
CC1(C)Cc2ccccc2-c2nc3n(c(=O)c21)CCCS3,,-41.5,"20.6 µM [falling, single point]"
O=C(NC(=S)N1CCOCC1)c1cc2ccccc2o1,,38.3,
C/C(=N/N=C(\C)c1ccccc1O)c1ccccc1O,,19.4,"6.51 µM [rising, single point]"
Cc1c(C(=O)c2cccc(F)c2)c2ccccn2c1CCC#N,"0.206 µM [rising, full curve, poor fit]",33.4,"0.92 µM [rising, full curve, poor fit]"
O=C(Nc1ccc2c(c1)OCO2)c1ccc(N2CCCC2)c([N+](=O)[O-])c1,,-14.9,
COc1ccc(CCNC(=O)c2c(O)c3cccc4c3n(c2=O)CC4)cc1,,43.7,

# 3 structures from above, ordered by formula weight, ascending:
SMILES,AC50 [1],cell number change [%],AC50 [2]
O=C(Nc1ccc2c(c1)OCO2)c1ccc(N2CCCC2)c([N+](=O)[O-])c1,,-14.9,
CC1CCN(S(=O)(=O)c2cccc(C(=O)Nc3ccccn3)c2)CC1,,,"6.51 µM [rising, single point]"
COc1ccc(/C=N/NC(=O)c2cc(Br)ccc2O)cc1Cn1cc(Cl)cn1,"0.13 µM [falling, full curve, poor fit]",-61.6,"20.6 µM [falling, single point]"

# The listing continues.

SMILES,AC50 [1],cell number change [%],AC50 [2]
CCOc1ccc(NC(=O)NC2(C(=O)NCc3ccco3)CCCCC2)cc1,"0.00461 µM [falling, full curve, poor fit]",-15.2,
CCOc1ccc(C(=O)NCc2ccncc2)cc1OCC,"0.651 µM [rising, full curve]",3.82,
COCCN(CC(=O)Nc1cccc(C)c1C)C(=O)Cn1c(=O)cnc2ccccc21,"0.0259 µM [rising, full curve, poor fit]",15.9,
Cc1cccc(C)c1NC(=O)CN(c1ccccn1)S(=O)(=O)c1ccccc1,"29.1 µM [rising, single point]",43.8,"11.6 µM [rising, partial curve, poor fit]"
Cc1noc(C)c1CSCC(=O)Oc1ccc(N(C)S(=O)(=O)c2ccc(Cl)cc2)cc1,,-4.62,
Cc1nnc(Nc2ccc(C(=O)NCCO)cc2)c2ccccc12,,-7.92,"0.116 µM [falling, single point]"
Cc1ccc(C(=O)NC(=S)NCC2CCCO2)cc1Br (stereo not given),"25.9 µM [rising, single point]",18.6,
COc1cc2c(cc1NC(=O)c1ccc3c(c1)OCO3)oc1ccccc12,"6.51 µM [rising, single point]",5.08,"4.11 µM [rising, single point]"
Cc1cc(NS(=O)(=O)c2ccccc2)c([N+](=O)[O-])cc1C,"29.1 µM [rising, single point]",28.6,"3.26 µM [rising, full curve, poor fit]"
Cc1ccccc1Cn1ccc(NC(=O)c2nn(C)cc2[N+](=O)[O-])n1,"23.1 µM [rising, partial curve, poor fit]",15.1,
O=c1[nH]c(=O)n(Cc2ccccc2)c2nc(-c3ccc(C(F)(F)F)cc3)n(CCO)c12,"29.1 µM [falling, single point]",185,"29.1 µM [rising, single point]"
O=C(Cc1ccc(Cl)cc1)NNC(=O)c1ccco1,"0.058 µM [falling, full curve, poor fit]",-15.2,
COc1ccc(OC)c(C2C(C(=O)Nc3ccccc3OC)=C(C)Nc3nc(CCCO)nn32)c1 (stereo not given),"0.206 µM [rising, full curve, poor fit]",-58.4,"29.1 µM [falling, single point]"
COc1cccc(/C=N/NC(=O)c2c(C)nc3ccc(Cl)cn23)c1O,"29.1 µM [rising, single point]",21.6,
O=C1CSC(c2ccc([N+](=O)[O-])cc2)N1CCN1CCCCC1 (stereo not given),"0.517 µM [falling, single point]",-4.78,
O=C(COc1ccccc1)Nc1ccc([N+](=O)[O-])cc1,"29.1 µM [rising, single point]",0.489,
Cc1ccc(S(=O)(=O)c2cc3c(=O)n4cccc(C)c4nc3n(Cc3ccco3)c2=N)cc1C,,-14.6,
O=C1CCCN1CCCN1C(=O)N[C@@H](Cc2ccccc2)C1=O,"0.731 µM [falling, full curve]",-23,"4.11 µM [falling, single point]"
CCCCOc1ccc(-c2nnn(CC(=O)c3c[nH]c4ccccc34)n2)cc1,"0.103 µM [falling, full curve, poor fit]",-18.5,
CC(C)(NO)/C(=N/O)c1cccs1,,-11.1,

# Structures listed so far that contain an NH in an aromatic ring:
SMILES,AC50 [1],cell number change [%],AC50 [2]
O=c1[nH]c(=O)n(Cc2ccccc2)c2nc(-c3ccc(C(F)(F)F)cc3)n(CCO)c12,"29.1 µM [falling, single point]",185,"29.1 µM [rising, single point]"
CCCCOc1ccc(-c2nnn(CC(=O)c3c[nH]c4ccccc34)n2)cc1,"0.103 µM [falling, full curve, poor fit]",-18.5,

# Remaining list, next part:

SMILES,AC50 [1],cell number change [%],AC50 [2]
Cc1cnc(C(=O)OCC(=O)c2ccc(Cl)cc2)cn1,,40.3,
CCc1ccccc1OCC(=O)Nc1cccc(S(=O)(=O)N2CCCC2)c1,,,"0.461 µM [rising, full curve, poor fit]"
CC(CCc1ccccc1)NC(=O)C(=O)NCCO (stereo not given),,-88.6,"2.06 µM [falling, partial curve, poor fit]"
COc1ccc(C(=O)NCCSc2ccccc2C)cc1,,0.493,
CC1CCCC(C)N1C(=O)c1ccc(S(=O)(=O)NCc2ccco2)cc1 (stereo not given),"25.9 µM [rising, partial curve]",-0.435,
O=C(COC(=O)c1cccc(S(=O)(=O)N2CCCCC2)c1)NCc1ccccc1,"3.26 µM [falling, single point]",8.85,
COc1cc(/C=C/[N+](=O)[O-])ccc1OC(=O)/C=C/c1ccc(F)cc1,,-3.52,
O=[N+]([O-])c1ccc(CNc2ccc(Cl)cc2)s1,"29.1 µM [rising, single point]",-8.84,
CC(C)Cn1c(=O)n(C)c(=O)c2[nH]cnc21,"0.058 µM [rising, full curve, poor fit]",8.33,
CC(=O)c1cccc(NC(=O)N2CCCC2C(=O)NCCc2ccccc2)c1 (stereo not given),,38,"25.9 µM [rising, single point]"
COCCOC(=O)c1c(C)n(C)c2ccc(OC(=O)N3CCOCC3)cc12,"0.259 µM [rising, full curve]",,
CC(C)c1ccc(NC(=O)C(c2ccccc2)N2CCC3(CC2)OCCO3)cc1 (stereo not given),"29.1 µM [falling, single point]",-11.6,
O=C(Cn1nc(-c2ccco2)ccc1=O)Nc1cc(Cl)ccc1Cl,"20.6 µM [falling, single point]",-12.7,
COc1ccccc1OCCNC(=O)CCC(=O)N1CCOCC1,"7.31 µM [falling, partial curve, poor fit]",2.3,
CC(Oc1ccc(Cl)cc1)C(=O)Nc1ccc(S(=O)(=O)N2CCOCC2)cc1 (stereo not given),"6.51 µM [falling, partial curve]",4.7,
Cc1cccc(C(=O)NC(NCCc2ccccc2)C(Cl)(Cl)Cl)c1 (stereo not given),,,"0.116 µM [rising, full curve, poor fit]"
CCOC(=O)C1=C(C)OC(N)=C(C#N)C1c1cc(SCC)oc1C (stereo not given),"29.1 µM [falling, single point]",-23.2,
C=CCn1c(SCC(=O)Nc2nc(C)cs2)nnc1C(NC(=O)c1ccccc1)C(C)C (stereo not given),"13 µM [falling, partial curve]",-54,"14.6 µM [falling, single point]"
CCOc1ccc2sc(NS(=O)(=O)c3ccc(OC)c(OC)c3)nc2c1,"5.17 µM [falling, partial curve]",16,
O=C(Cc1ccc(Cl)cc1Cl)OCC(=O)N1CCCCC1,,11.7,
